Measured values taken from PMC12324675.
These are yes or no findings as the source states them, for the method shown. Binding seen in cells or lysates may run through a third protein.

Sequences of proteins named here, by UniProt entry; tags and fusion partners are left off. A change or cut given only in a name is not applied to a line headed by its entry.
UniProt P25490: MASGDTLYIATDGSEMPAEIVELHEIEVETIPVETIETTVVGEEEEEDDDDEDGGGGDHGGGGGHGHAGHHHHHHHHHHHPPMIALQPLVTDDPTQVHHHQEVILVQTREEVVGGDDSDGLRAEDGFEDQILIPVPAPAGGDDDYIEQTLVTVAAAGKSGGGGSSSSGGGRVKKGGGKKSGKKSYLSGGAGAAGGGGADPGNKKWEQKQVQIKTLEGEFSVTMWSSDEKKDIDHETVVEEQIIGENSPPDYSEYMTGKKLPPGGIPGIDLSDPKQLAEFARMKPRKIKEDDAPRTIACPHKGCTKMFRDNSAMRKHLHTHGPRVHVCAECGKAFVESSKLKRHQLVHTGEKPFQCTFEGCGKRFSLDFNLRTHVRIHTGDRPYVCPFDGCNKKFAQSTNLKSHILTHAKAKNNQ
UniProt P0DTC3: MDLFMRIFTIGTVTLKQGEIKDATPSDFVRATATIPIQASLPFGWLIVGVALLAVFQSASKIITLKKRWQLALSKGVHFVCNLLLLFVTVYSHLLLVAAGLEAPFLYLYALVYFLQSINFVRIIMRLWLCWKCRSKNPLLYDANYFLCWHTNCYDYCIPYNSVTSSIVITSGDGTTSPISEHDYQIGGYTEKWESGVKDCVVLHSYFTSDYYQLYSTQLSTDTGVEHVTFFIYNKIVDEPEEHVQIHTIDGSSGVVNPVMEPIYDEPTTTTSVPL

Biological target: YY1Δ4 (deletion of the zinc finger domain), 3×Flag-tagged (pcDNA3.1(+)-3 × Flag-YY1-Δ4) (UniProt P25490)
Assay: co-IP; […] (20 mM Tris-HCl pH 7.5, 100 mM NaCl, 0.5 mM EDTA, 5% glycerol, 1% Triton X-100); […]

With “SARS-CoV-2 ORF3a, HA-tagged (pCAGGS-HA-ORF3a) (from UniProt P0DTC3 1-275)” the binding was “no binding”.
